# Whole data set: some 33,000 sequences, median “E-score (-0.5 to 0.5)” near -0.0014, cut for the highest 2% near 0.25. The list shows a part of the results.
# Molecular target: T1, Cad1 (UniProt P24813)
# T1 sequence: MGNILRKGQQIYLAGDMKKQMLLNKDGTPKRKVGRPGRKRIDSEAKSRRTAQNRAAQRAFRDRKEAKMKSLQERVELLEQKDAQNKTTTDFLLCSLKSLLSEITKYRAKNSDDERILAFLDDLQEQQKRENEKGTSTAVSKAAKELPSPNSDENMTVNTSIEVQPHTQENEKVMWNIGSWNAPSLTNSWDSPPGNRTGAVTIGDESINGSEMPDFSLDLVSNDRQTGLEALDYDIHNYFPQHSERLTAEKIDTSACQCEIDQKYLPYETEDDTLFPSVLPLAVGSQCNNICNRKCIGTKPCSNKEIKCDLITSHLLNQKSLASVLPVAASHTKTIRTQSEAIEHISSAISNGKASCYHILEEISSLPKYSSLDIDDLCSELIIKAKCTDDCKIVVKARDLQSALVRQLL
# Assay: PBM E-score (8-mer binding enrichment) (E-score (-0.5 to 0.5)); higher = stronger / more preferred TF binding
# Conditions: protein concentration: 100 nM; construct: GST-full length
# Method: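 Universal 'all 10-mer' protein binding microarrays (Agilent AMADID 015681) probed with GST-tagged S. cerevisiae TFs (full-length or DBD) made by in vitro transcription/translation (PURExpress), about 100-200 nM. Bound TF was detected with fluorescent anti-GST. Each ungapped 8-mer (which stands for itself and its reverse complement) is scored by the PBM enrichment score (E-score), a modified Wilcoxon-Mann-Whitney statistic from -0.5 to +0.5, computed with the Universal PBM Analysis Suite. Scale: above 0.35 generally sequence-specific binding.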
row,Sequence,PBM E-score
1,TCCCTCCA,-0.173
2,ACGCCGCA,-0.0273
3,AATTGACA,0.0327
4,CGTAGGGC,-0.225
5,AATACTGC,0.12
6,CAGCCGGA,0.21
7,AAGTATAA,0.0643
8,TCGAATCA,0.194
9,ACGGCACC,-0.249
10,GCCCACAA,-0.153
11,ACTCCTTA,-0.267
12,CATTCCTA,-0.0168
13,AGCTCGAA,0.151
14,TCGAGGCA,0.169
15,CAATGGCG,0.0748
16,GTGCCGCA,0.232
17,TCATTCCA,-0.125
18,AAGTCTTC,-0.025
19,AAATACGC,0.1
20,ATTCAGCG,0.0791
21,AGACCCTA,-0.231
22,CAAGCCAC,-0.244

# A few values from the entries so far:
# In PBM E-score, AAATACGC has 0.1
# In PBM E-score, GTGCCGCA has 0.232
# In PBM E-score, CAGCCGGA has 0.21
# In PBM E-score, TCGAGGCA has 0.169
# In PBM E-score, CATTCCTA has -0.0168
# In PBM E-score, ACGGCACC has -0.249

# Later entries.

row,Sequence,PBM E-score
1,ATACGAAA,0.216
2,CCGCCCGA,0.0119
3,AAATCCGC,-0.0557
4,CGGCACAA,-0.103
5,AGATGTTC,-0.0743
6,ACAATTCG,0.0813
7,GACCCACA,0.115
8,ACTAATAC,0.301
9,CCATGTAC,-0.063
10,CGGCCTTC,0.112
11,GGTTTGTA,0.0742
12,AAATCGAG,0.086
13,ACCAGGGG,-0.409
14,GCCGTAAC,0.0841
15,CTGTTAAA,0.034
16,CGCTGCAC,0.0234
17,GTCTCATA,0.00534
18,TGGAACAA,0.144
19,CTTCGCAC,0.0282
20,AGTTACGG,-0.229
21,AATGCGCA,0.342
22,ATGTATTG,0.095

row,Sequence,PBM E-score
1,AATTCCTG,-0.128
2,GTGCGTAA,0.116
3,ACAAGAGC,-0.107
4,CAGACAGC,-0.111
5,TCACCACA,0.144
6,ATTACAAA,0.425
7,CAGGTATC,-0.0707
8,AACAATAC,0.135
9,CATTTTTC,0.124
10,CGATCTTA,0.0142
11,ACGGTCCT,-0.272
12,CGAAGAGC,-0.0445
13,TTACGGAA,0.072
14,TAGTCAAA,-0.074
15,CATTGAGC,-0.0704
16,CTTAAGAC,-0.0415
17,CCGCGTAA,0.0243
18,ATGCGCTA,0.101
19,CACTAAGC,0.0972
20,AGCTTGAT,0.0208
21,ATAGCAAG,0.0832
22,GCGTCAAC,-0.0122

row,Sequence,PBM E-score
1,ATGATGGG,-0.0815
2,AGTGCCGG,-0.0719
3,AACCGTGT,-0.0504
4,ACGAGACG,-0.0928
5,AAACCCAT,0.261
6,GTTTGCCA,0.00247
7,CGGGGACA,0.00954
8,GTTAGTCA,0.266
9,CACGCAAG,0.161
10,ACTGCACC,0.0283
11,ATACTATA,-0.00949
12,AAAATCCG,0.0887
13,GCGTCTGA,0.0329
14,AAAATCGA,0.0728
15,CTGAGGCA,-0.153
16,AACGATAT,0.271
17,CGTAAAAG,0.0161
18,CGATGCGC,0.102
19,CAACTCAA,0.218
20,GACCTGAA,-0.00931

# — the supplement of paper PMC3334620
